Measurements published in article PMC11151825 (RSC Chemical Biology, 2024).
Values joined by “and” are separate entries in the source; they are usually repeats but may differ in a detail not shown here. Equal values may be shown once. Where a sequence shows no end group, the ends are not given.

assay: general procedure: Fmoc solid-phase peptide synthesis; 2-CTC resin (substitution value 0.45 or 1 mmol/g); HCTU/DIPEA; HATU/DIPEA for ligation and cyclization; settings: oxidative folding step, HPLC peak area integration; run 1

| Substance | oxidative folding yield |
| --- | --- |
| VCGETCVGGTCNTPGCTCSWPVCT | 15.4% and 23.4% |

same assay, conditions: whole synthesis, on initial resin loading, scale of the general procedure 0.125 mmol

| Substance | isolated yield [%] |
| --- | --- |
| Boc-GCT(tBu)K(ivDde)S(tBu)IPPICG | 4.6 |
| Boc-FK(ivDde)PLAAaR(Pbf) | 43.3 |
| Boc-R(Pbf)N(Trt)GLP | 50.9 |
| Boc-FK(ivDde)PLA[Abu]aR(Pbf) | 50.0 |
| Boc-GC(Acm)Y(tBu)IQ(Trt)N(Trt)C(Acm)PLG | 36.0 |
| Boc-GC(Acm)Y(tBu)FQ(Trt)N(Trt)C(Acm)PR(Pbf)G | 35.0 |
